Measurements: patent US6693076
Results are given in words; binding and its absence hold for the method and conditions named. Some binding calls cover weakened binding; strength is not graded here.

Sequences of proteins named here, by UniProt entry; tags and fusion partners are left off. Residues count along the entry.
UniProt P24062, residues 31-1370: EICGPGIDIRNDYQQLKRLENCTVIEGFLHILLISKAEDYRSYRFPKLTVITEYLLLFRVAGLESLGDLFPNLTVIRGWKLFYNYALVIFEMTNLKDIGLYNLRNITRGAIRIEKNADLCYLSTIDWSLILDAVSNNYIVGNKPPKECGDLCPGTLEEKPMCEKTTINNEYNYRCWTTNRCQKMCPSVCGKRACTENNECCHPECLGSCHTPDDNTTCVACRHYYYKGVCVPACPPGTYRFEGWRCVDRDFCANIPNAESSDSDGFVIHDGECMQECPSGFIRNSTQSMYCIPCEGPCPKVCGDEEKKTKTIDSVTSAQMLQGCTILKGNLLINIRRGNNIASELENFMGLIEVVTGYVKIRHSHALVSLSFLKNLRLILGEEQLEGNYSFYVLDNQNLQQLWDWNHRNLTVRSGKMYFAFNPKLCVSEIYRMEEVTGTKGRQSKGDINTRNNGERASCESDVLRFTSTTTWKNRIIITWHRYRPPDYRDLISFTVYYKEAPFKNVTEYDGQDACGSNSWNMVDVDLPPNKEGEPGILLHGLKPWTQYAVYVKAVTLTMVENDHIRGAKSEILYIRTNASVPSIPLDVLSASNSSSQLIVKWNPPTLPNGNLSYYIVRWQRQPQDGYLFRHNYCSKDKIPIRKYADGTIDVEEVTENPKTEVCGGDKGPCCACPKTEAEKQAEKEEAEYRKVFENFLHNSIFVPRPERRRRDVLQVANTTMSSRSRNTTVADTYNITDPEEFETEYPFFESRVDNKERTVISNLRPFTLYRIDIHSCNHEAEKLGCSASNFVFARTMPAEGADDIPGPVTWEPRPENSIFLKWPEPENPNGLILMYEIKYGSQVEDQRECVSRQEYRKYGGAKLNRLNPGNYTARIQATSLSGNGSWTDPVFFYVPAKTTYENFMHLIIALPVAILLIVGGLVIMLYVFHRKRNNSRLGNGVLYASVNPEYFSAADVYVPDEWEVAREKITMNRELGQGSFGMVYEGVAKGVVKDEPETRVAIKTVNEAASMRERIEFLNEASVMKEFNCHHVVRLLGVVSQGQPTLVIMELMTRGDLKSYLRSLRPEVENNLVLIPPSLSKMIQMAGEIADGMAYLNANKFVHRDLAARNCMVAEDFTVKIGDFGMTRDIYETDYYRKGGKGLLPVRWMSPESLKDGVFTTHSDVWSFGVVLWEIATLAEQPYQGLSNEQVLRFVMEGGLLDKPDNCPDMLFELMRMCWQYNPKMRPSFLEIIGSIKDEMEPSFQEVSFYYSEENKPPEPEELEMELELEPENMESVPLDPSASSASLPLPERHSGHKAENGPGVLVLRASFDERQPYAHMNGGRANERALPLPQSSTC

Molecular target: IGF-I receptor in homogenized adult rat brain tissue (cerebral cortex and cerebellum) (rat) (UniProt P24062)
Assay: displacement of 125I-[Thr59]IGF-I from homogenised rat brain tissue

YFNKPTGYGSSSRRAPQT [IGF-I(24-41)]
binding: binds
